The target in the assay is full length wild-type hA3G fused with an HA tag at the C-terminus (hA3G-HA), in lysate of transfected Huh7.5 cells (human) (UniProt Q9HC16). As to the kind of experiment: affinity purification with mass spectrometry; anti-HA immunoprecipitate of HCV-infected Huh7.5 cells transfected with phA3G-HA; bands of the SDS-PAGE gel extracted and sequenced by LC-MS/MS.

Protein sequences, listed by entry. Tags and fused reporters are not part of them. Residues count along the entry.
UniProt Q9HC16: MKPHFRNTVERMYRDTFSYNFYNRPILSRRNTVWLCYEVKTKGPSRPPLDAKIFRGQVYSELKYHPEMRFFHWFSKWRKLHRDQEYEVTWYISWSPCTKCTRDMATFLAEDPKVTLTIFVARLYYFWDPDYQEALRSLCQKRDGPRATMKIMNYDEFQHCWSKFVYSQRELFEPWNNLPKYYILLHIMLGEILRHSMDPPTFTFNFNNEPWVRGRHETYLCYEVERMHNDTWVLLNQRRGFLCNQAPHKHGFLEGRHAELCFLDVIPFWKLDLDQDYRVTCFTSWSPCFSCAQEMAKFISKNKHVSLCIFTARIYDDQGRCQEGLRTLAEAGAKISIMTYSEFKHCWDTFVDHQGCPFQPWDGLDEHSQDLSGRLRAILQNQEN
UniProt Q99IB8, residues 1031-1661: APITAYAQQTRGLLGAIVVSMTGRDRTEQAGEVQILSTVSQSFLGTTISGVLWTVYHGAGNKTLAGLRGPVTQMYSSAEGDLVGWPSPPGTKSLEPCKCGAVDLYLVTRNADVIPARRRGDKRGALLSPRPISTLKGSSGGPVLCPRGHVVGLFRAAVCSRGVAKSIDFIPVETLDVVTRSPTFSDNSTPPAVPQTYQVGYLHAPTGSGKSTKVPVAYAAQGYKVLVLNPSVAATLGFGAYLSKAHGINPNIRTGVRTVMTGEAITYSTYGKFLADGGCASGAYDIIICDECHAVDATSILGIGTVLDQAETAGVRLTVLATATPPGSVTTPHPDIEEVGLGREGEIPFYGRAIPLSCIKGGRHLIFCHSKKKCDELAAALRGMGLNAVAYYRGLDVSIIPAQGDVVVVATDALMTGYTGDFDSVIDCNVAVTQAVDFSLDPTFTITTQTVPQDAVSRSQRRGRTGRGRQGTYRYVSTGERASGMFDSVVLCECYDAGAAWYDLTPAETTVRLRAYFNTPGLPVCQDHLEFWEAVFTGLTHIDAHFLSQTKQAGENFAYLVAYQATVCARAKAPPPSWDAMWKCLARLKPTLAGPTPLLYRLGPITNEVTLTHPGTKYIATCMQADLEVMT

No constants are given. Whether binding was seen depends on the method and setting. In cells and extracts the contact can be indirect. Here binding means that the protein was enriched with, or labelled near, the bait; the list need not be complete.

One substance from article PMC4374698 can be followed below.

For “HCV non-structural protein NS3, from HCV-infected Huh7.5 cells (from UniProt Q99IB8 1031-1661)”, the binding result was “binds”.
